Test results from patent US7407988B2, “Carbamic acid compounds comprising a sulfonamide linkage as HDAC inhibitors” (Topotarget UK Limited, priority 2000, dated 2008).

Tested on: K11 HPV E7 transformed human keratinocyte line
Test: Secondary assay: cell proliferation WST-1, K11
Assay type: cell-based
Details: Table 2, 48 h, read-out: Cell Proliferation Inhibition WST-1 (IC50 unless otherwise specified) K11

O=C(CCCCCCC(=O)Nc1ccccc1)NO [SAHA, suberoylanilide hydroxamic acid, reference compound]
IC50: 6.82 µM
